From article PMC3418687
No constants are given. Whether binding was seen depends on the method and setting. Some binding calls cover weakened binding; strength is not graded here.

Chains of the proteins cited; added tags and fusions are not shown. Residues count along the entry.
UniProt P01009, residues 25-418: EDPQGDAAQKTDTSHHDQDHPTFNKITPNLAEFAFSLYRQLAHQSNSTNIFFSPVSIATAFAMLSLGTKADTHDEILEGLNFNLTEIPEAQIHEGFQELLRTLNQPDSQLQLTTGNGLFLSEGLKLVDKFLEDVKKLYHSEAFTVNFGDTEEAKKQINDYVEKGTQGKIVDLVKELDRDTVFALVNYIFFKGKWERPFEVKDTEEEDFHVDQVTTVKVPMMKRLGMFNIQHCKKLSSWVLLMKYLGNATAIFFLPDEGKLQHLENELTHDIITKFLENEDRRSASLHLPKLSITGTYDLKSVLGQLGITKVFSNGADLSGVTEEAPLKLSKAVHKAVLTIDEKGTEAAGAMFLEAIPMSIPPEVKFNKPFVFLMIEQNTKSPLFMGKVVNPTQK

T1: Cathepsin G (CG) purified from human neutrophils (human) (UniProt P08311)
T1 sequence: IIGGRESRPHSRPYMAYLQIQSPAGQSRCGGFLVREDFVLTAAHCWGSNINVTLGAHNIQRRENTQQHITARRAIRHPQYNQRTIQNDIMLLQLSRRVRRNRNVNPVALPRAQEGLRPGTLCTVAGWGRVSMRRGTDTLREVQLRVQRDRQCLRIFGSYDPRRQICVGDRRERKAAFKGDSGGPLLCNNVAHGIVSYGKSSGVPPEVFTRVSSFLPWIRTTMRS


Key:
[1] = target: T1, Cathepsin G (CG) purified from human neutrophils (human); test: covalent complex seen as a heavier band by SDS-PAGE and western blot; CG (1.67 pmol) incubated with AT (90.9 pmol) or ACT (1.5 pmol) in RPMI 1640 medium containing 1% BSA for 10 min at 4°C; western blot with anti-CG antibody; both purified
[2] = target: T1, Cathepsin G (CG) purified from human neutrophils (human); test: condition: only CG pretreated with chymostatin (661 pmol); covalent complex seen as a heavier band by SDS-PAGE and western blot; as a1, but CG pretreated with chymostatin (661 pmol) before AT or ACT; western blot with anti-CG antibody; both purified

binding [1] | binding [2] | Molecule
binds | no binding | α1-antitrypsin (AT) (from UniProt P01009 25-418)
binds | no binding | α1-antichymotrypsin (ACT) (protein, UniProt P01011 24-423) HPNSPLDEENLTQENQDRGTHVDLGLASANVDFAFSLYKQLVLKAPDKNVIFSPLSISTALAFLSLGAHNTTLTEILKGLKFNLTETSEAEIHQSFQHLLRTLNQSSDELQLSMGNAMFVKEQLSLLDRFTEDAKRLYGSEAFATDFQDSAAAKKLINDYVKNGTRGKITDLIKDLDSQTMMVLVNYIFFKAKWEMPFDPQDTHQSRFYLSKKKWVMVPMMSLHHLTIPYFRDEELSCTVVELKYTGNASALFILPDQDKMEEVEAMLLPETLKRWRDSLEFREIGELYLPKFSISRDYNLNDILLQLGIEEAFTSKADLSGITGARNLAVSQVVHKAVLDVFEEGTEASAATAVKITLLSALVETRTIVRFNRPFLMIIVPTDTQNIFFMSKVTNPKQA
